Patent publication US20210261642A1, “SOLUBILITY OF GLP-1 PEPTIDE” (Novo Nordisk A/S, priority 2017, published 2021)
This continues a long series; more values of the same kind are listed elsewhere.

Test: Assay (I): Determination of Solubility (96-well plate, pH 3.0-11.0, organic solvent 0-70% w/w, UV absorption at 280 nm)
Type: physicochemical
Method: Assay (I): Determination of Solubility
96-Well Plate Preparation
96-well plates containing target peptide in a solid form were prepared in one of two ways:
Method 1 (evaporation): Addition of 100 μl stock solution of said peptide at a concentration of 4-6 mg/ml to each well of a 96-well half area plate (150 μl well size). Subsequently the solvent was evaporated by applying a vacuum until the solvent was completely removed.
Method 2 (precipitation): Addition of a certain volume of a stock solution of said peptide containing to each well of a 96-well half area plate followed by the addition of a certain volume of concentrated phosphoric acid to obtain a pH of 4.6 followed by addition of a certain volume of ethanol resulting in a final ethanol concentration of 20% v/v. Subsequently the plate was stored at 4° C. for 1 h and then centrifuged at 4,000 rpm for 20 min. Finally the supernatant was removed. The concentration of the stock solution was chosen in a way that the final amount of peptide after supernatant removal was >0.4 mg per well.
In both cases the stock solution was prepared by adding de-ionized water to a certain amount of powder of said peptide followed by a stepwise addition of small amounts of a concentrated sodium hydroxide solution until said peptide was completely in solution.
To determine solubility of a target peptide at different pH and organic solvent concentrations, two different buffer systems were used in independent experiments to cover the whole range from pH 3.0 to pH 11.0. Buffer system 1 covers pH 3.0-7.5 and buffer system 2 covers pH 7.5-11.0. For each buffer system 96 different solvent compositions were premixed in the following way: • 1. A low pH buffer (adjusted to either pH 3.0 or pH 7.5) and a high pH buffer (adjusted to either pH 7.5 or pH 11.0) were mixed at 8 different ratios to obtain values between pH 3.0 and pH 7.5 or pH 7.5 and pH 11.0, respectively. The total volume after mixing was 300 μl. • 2. 12 different amounts of organic solvent were then added to these buffers to obtain organic solvent (e.g. ethanol) concentrations between 0 and 70% w/w. • 3. Water was then added to obtain a total weight of 1.0 g of solvent in each well.
After preparing the 96 different solvent systems, 100 μl of each system was transferred to the 96-well plate containing the solid form of the target peptide (prepared as described in the section “96-well plate preparation”). The plate was then stored at a given temperature (between 5° C. and 70° C.) for a given time on a rotating shaker set to 400 rpm. At regular time intervals the plate was centrifuged (4,000 rpm for 10 min) and a 10 μl sample was taken from each well. The samples were then analysed by UV absorption at 280 nm for peptide quantification. Peptide concentration results are given as UV absorption at 280 nm of the sample subtracted UV absorption at 280 nm of a well comprising 10 μl water.
The buffers used were as follows: • Buffer system 1 (for the pH range from pH 3.0-7.5)
• Buffer system 2 (for the pH ranae from pH 7.5-11.0)
Solubility of liraglutide was determined using Assay (I) described herein. Liraglutide was prepared using Method 1 (evaporation) or Method 2 (precipitation) as described in subsection “96-well plate preparation”.

[1] = MeCN 57.3% w/w, pH 3.0, RT, Method 1
[2] = MeCN 57.3% w/w, pH 3.6, 5° C., Method 1
[3] = MeCN 57.3% w/w, pH 3.6, RT, Method 1
[4] = MeCN 57.3% w/w, pH 4.3, 5° C., Method 1
[5] = MeCN 57.3% w/w, pH 4.3, 70° C., Method 1
[6] = MeCN 57.3% w/w, pH 4.3, RT, Method 1
[7] = MeCN 57.3% w/w, pH 4.9, 5° C., Method 1
[8] = MeCN 57.3% w/w, pH 4.9, 70° C., Method 1
[9] = MeCN 57.3% w/w, pH 4.9, RT, Method 1
[10] = MeCN 57.3% w/w, pH 5.6, 5° C., Method 1
[11] = MeCN 57.3% w/w, pH 5.6, 70° C., Method 1
[12] = MeCN 57.3% w/w, pH 5.6, RT, Method 1
[13] = MeCN 57.3% w/w, pH 6.2, 5° C., Method 1
[14] = MeCN 57.3% w/w, pH 6.2, 70° C., Method 1
[15] = MeCN 57.3% w/w, pH 6.2, RT, Method 1
[16] = MeCN 57.3% w/w, pH 6.9, 5° C., Method 1
[17] = MeCN 57.3% w/w, pH 6.9, 70° C., Method 1
[18] = MeCN 57.3% w/w, pH 6.9, RT, Method 1
[19] = MeCN 57.3% w/w, pH 7.5, 5° C., Method 1
[20] = MeCN 57.3% w/w, pH 7.5, 70° C., Method 1
[21] = MeCN 57.3% w/w, pH 7.5, RT, Method 1
[22] = MeCN 57.3% w/w, pH 8.0, 70° C., Method 1 (evaporation)
[23] = MeCN 57.3% w/w, pH 8.0, RT, Method 1
[24] = MeCN 57.3% w/w, pH 8.5, 70° C., Method 1 (evaporation)
[25] = MeCN 57.3% w/w, pH 8.5, RT, Method 1
[26] = MeCN 57.3% w/w, pH 9.0, 70° C., Method 1 (evaporation)
[27] = MeCN 57.3% w/w, pH 9.0, RT, Method 1
[28] = MeCN 57.3% w/w, pH 9.5, 70° C., Method 1 (evaporation)
[29] = MeCN 57.3% w/w, pH 9.5, RT, Method 1
[30] = MeCN 57.3% w/w, pH 10.0, 70° C., Method 1 (evaporation)
[31] = MeCN 57.3% w/w, pH 10.0, RT, Method 1
[32] = MeCN 57.3% w/w, pH 10.5, 70° C., Method 1 (evaporation)
[33] = MeCN 57.3% w/w, pH 10.5, RT, Method 1
[34] = MeCN 57.3% w/w, pH 11.0, 70° C., Method 1 (evaporation)
[35] = MeCN 57.3% w/w, pH 11.0, RT, Method 1
[36] = MeCN 63.6% w/w, pH 3.0, 5° C., Method 1
[37] = MeCN 63.6% w/w, pH 3.0, 70° C., Method 1

Peptide concentration after 180 min (MeCN 57.3% w/w, pH 3.0, 70° C., Method 1): 2.6 mg/mL | Peptide concentration after 5 min [1]: 0.4 mg/mL | Peptide concentration after 180 min [1]: 1.0 mg/mL | Peptide concentration after 24 h [1]: 1.3 mg/mL | Peptide concentration after 5 min [2]: 0.2 mg/mL | Peptide concentration after 180 min [2]: 0.5 mg/mL | Peptide concentration after 24 h [2]: 0.7 mg/mL | Peptide concentration after 5 min (MeCN 57.3% w/w, pH 3.6, 70° C., Method 1): 0.5 mg/mL | Peptide concentration after 5 min [3]: 0.2 mg/mL | Peptide concentration after 180 min [3]: 0.4 mg/mL | Peptide concentration after 24 h [3]: 0.4 mg/mL | Peptide concentration after 5 min [4]: 0.2 mg/mL | Peptide concentration after 180 min [4]: 0.4 mg/mL | Peptide concentration after 24 h [4]: 0.5 mg/mL | Peptide concentration after 5 min [5]: 0.5 mg/mL | Peptide concentration after 180 min [5]: 1.3 mg/mL | Peptide concentration after 5 min [6]: 0.2 mg/mL | Peptide concentration after 180 min [6]: 0.4 mg/mL | Peptide concentration after 24 h [6]: 0.3 mg/mL | Peptide concentration after 5 min [7]: 0.2 mg/mL | Peptide concentration after 180 min [7]: 0.4 mg/mL | Peptide concentration after 24 h [7]: 0.4 mg/mL | Peptide concentration after 5 min [8]: 0.6 mg/mL | Peptide concentration after 180 min [8]: 1.3 mg/mL | Peptide concentration after 5 min [9]: 0.2 mg/mL | Peptide concentration after 180 min [9]: 0.4 mg/mL | Peptide concentration after 24 h [9]: 0.2 mg/mL | Peptide concentration after 5 min [10]: 0.3 mg/mL | Peptide concentration after 180 min [10]: 0.6 mg/mL | Peptide concentration after 24 h [10]: 0.7 mg/mL | Peptide concentration after 5 min [11]: 0.9 mg/mL | Peptide concentration after 180 min [11]: 1.8 mg/mL | Peptide concentration after 5 min [12]: 0.3 mg/mL | Peptide concentration after 180 min [12]: 0.6 mg/mL | Peptide concentration after 24 h [12]: 0.5 mg/mL | Peptide concentration after 5 min [13]: 0.6 mg/mL | Peptide concentration after 180 min [13]: 0.7 mg/mL | Peptide concentration after 24 h [13]: 0.7 mg/mL | Peptide concentration after 5 min [14]: 0.9 mg/mL | Peptide concentration after 180 min [14]: 2.0 mg/mL | Peptide concentration after 5 min [15]: 0.5 mg/mL | Peptide concentration after 180 min [15]: 0.5 mg/mL | Peptide concentration after 24 h [15]: 0.6 mg/mL | Peptide concentration after 5 min [16]: 0.3 mg/mL | Peptide concentration after 180 min [16]: 0.6 mg/mL | Peptide concentration after 24 h [16]: 1.1 mg/mL | Peptide concentration after 5 min [17]: 0.9 mg/mL | Peptide concentration after 180 min [17]: 2.7 mg/mL | Peptide concentration after 5 min [18]: 0.4 mg/mL | Peptide concentration after 180 min [18]: 0.8 mg/mL | Peptide concentration after 24 h [18]: 0.9 mg/mL | Peptide concentration after 5 min [19]: 1.6 mg/mL | Peptide concentration after 180 min [19]: 2.3 mg/mL | Peptide concentration after 24 h [19]: 2.9 mg/mL | Peptide concentration after 5 min [20]: 3.3 mg/mL | Peptide concentration after 180 min [20]: >4.0 mg/mL | Peptide concentration after 5 min [21]: 0.8 mg/mL | Peptide concentration after 180 min [21]: 3.0 mg/mL | Peptide concentration after 24 h [21]: >4.0 mg/mL | Peptide concentration after 5 min [22]: 3.4 mg/mL | Peptide concentration after 180 min [22]: >4.0 mg/mL | Peptide concentration after 5 min [23]: 0.6 mg/mL | Peptide concentration after 180 min [23]: 2.8 mg/mL | Peptide concentration after 24 h [23]: >4.0 mg/mL | Peptide concentration after 5 min [24]: 3.7 mg/mL | Peptide concentration after 180 min [24]: >4.0 mg/mL | Peptide concentration after 5 min [25]: 0.5 mg/mL | Peptide concentration after 180 min [25]: 2.9 mg/mL | Peptide concentration after 24 h [25]: >4.0 mg/mL | Peptide concentration after 5 min [26]: 1.6 mg/mL | Peptide concentration after 180 min [26]: >4.0 mg/mL | Peptide concentration after 5 min [27]: 0.4 mg/mL | Peptide concentration after 180 min [27]: 2.2 mg/mL | Peptide concentration after 24 h [27]: >4.0 mg/mL | Peptide concentration after 5 min [28]: 4.0 mg/mL | Peptide concentration after 180 min [28]: >4.0 mg/mL | Peptide concentration after 5 min [29]: 0.7 mg/mL | Peptide concentration after 180 min [29]: 3.0 mg/mL | Peptide concentration after 24 h [29]: >4.0 mg/mL | Peptide concentration after 5 min [30]: 2.5 mg/mL | Peptide concentration after 180 min [30]: >4.0 mg/mL | Peptide concentration after 5 min [31]: 1.0 mg/mL | Peptide concentration after 180 min [31]: 2.0 mg/mL | Peptide concentration after 24 h [31]: >4.0 mg/mL | Peptide concentration after 5 min [32]: 2.6 mg/mL | Peptide concentration after 180 min [32]: >4.0 mg/mL | Peptide concentration after 5 min [33]: 0.8 mg/mL | Peptide concentration after 180 min [33]: 1.6 mg/mL | Peptide concentration after 24 h [33]: >4.0 mg/mL | Peptide concentration after 5 min [34]: 3.6 mg/mL | Peptide concentration after 180 min [34]: >4.0 mg/mL | Peptide concentration after 5 min [35]: 0.7 mg/mL | Peptide concentration after 180 min [35]: 2.7 mg/mL | Peptide concentration after 24 h [35]: >4.0 mg/mL | Peptide concentration after 5 min [36]: 0.4 mg/mL | Peptide concentration after 180 min [36]: 0.7 mg/mL | Peptide concentration after 24 h [36]: 1.2 mg/mL | Peptide concentration after 5 min [37]: 0.9 mg/mL | Peptide concentration after 180 min [37]: 2.8 mg/mL | Peptide concentration after 5 min (MeCN 63.6% w/w, pH 3.0, RT, Method 1): 0.3 mg/mL
Structure (SMILES): CCCCCCCCCCCCCCCC(=O)N[C@@H](CCC(=O)NCCCC[C@H](NC(=O)[C@H](C)NC(=O)[C@H](C)NC(=O)[C@H](CCC(N)=O)NC(=O)CNC(=O)[C@H](CCC(=O)O)NC(=O)[C@H](CC(C)C)NC(=O)[C@H](Cc1ccc(O)cc1)NC(=O)[C@H](CO)NC(=O)[C@H](CO)NC(=O)[C@@H](NC(=O)[C@H](CC(=O)O)NC(=O)[C@H](CO)NC(=O)[C@@H](NC(=O)[C@H](Cc1ccccc1)NC(=O)[C@@H](NC(=O)CNC(=O)[C@H](CCC(=O)O)NC(=O)[C@H](C)NC(=O)[C@@H](N)Cc1cnc[nH]1)[C@@H](C)O)[C@@H](C)O)C(C)C)C(=O)N[C@@H](CCC(=O)O)C(=O)N[C@@H](Cc1ccccc1)C(=O)N[C@H](C(=O)N[C@@H](C)C(=O)N[C@@H](Cc1c[nH]c2ccccc12)C(=O)N[C@@H](CC(C)C)C(=O)N[C@H](C(=O)N[C@@H](CCCNC(=N)N)C(=O)NCC(=O)N[C@@H](CCCNC(=N)N)C(=O)NCC(=O)O)C(C)C)[C@@H](C)CC)C(=O)O [liraglutide, Arg34,Lys26-(N-epsilon-(gamma-L-glutamyl(N-alfa-hexadecanoyl)))-GLP-1(7-37)]
